Percent effect of library compounds

By UniProt entry, the sequences of proteins in these tests, tags left out.
UniProt P9WPC5, whole entry: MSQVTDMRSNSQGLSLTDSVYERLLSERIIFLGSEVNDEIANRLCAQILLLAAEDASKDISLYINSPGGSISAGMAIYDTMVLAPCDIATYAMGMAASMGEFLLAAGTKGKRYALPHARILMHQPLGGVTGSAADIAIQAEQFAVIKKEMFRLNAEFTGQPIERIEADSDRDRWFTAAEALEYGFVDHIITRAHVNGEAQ
UniProt P9WPC3, whole entry partner: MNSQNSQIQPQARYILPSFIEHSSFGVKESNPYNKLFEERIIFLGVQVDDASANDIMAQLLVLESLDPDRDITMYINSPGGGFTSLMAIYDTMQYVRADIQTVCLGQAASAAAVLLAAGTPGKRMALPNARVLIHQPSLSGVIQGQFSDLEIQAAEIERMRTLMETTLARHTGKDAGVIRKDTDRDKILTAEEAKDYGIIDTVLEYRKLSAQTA

The values are deposited in ChEMBL (CHEMBL3988442, “University of Dundee, Small-Polar-MMV Screening Library” (2021)).

Toxoplasma: 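Assay of Toxoplasma gondii numbers, read through their beta-galactosidase reporter with a colour substrate. Concentration: 10 µM. Higher reads as fewer parasites (inferred from which compounds were picked for retests). Size under these conditions: about 67,000 compounds, about 260 of them at 50% or above in at least one test.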
ClpP1P2: 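Protease assay of ClpP1P2, read by the AMC dye that it sets free. Target: ClpP1P2, Mycobacterium tuberculosis (UniProt P9WPC5 and UniProt P9WPC3). Tested at 50 µM. Direction is inferred from only a few compounds that gave an IC50; most scored high, so higher reads as stronger inhibition. Most other retested compounds had strongly negative values. About 69,000 compounds were tested under these conditions; 0.015% (about 10) showed 50% or more at least once.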
Leishmania in macrophages: 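Cell assay of Leishmania donovani living inside macrophages; the read-out is not stated. Concentration: 30 µM. Direction is inferred from retests: higher values go with stronger inhibition. Size under these conditions: about 69,000 compounds, about 1,000 of them at 50% or above in at least one test.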
T. brucei: 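Whole-parasite assay of Trypanosoma brucei over 72 hours; the read-out is not stated. Tested at 30 µM. The record gives no direction; compounds that gave an IC50 in retests scored well above the rest, so higher reads as stronger inhibition. Values scatter widely below zero; nearly all retest evidence comes from the higher of the two concentrations used. Size under these conditions: about 64,000 compounds, about 940 of them at 50% or above in at least one test.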

The filed quantity is “Percent Effect” (%). The controls that fix the scale are not given in the record; negative values are as filed. Compounds were drawn at random from those tested, without regard to their results. Two or more numbers in one place are separate tests of the same structure; such repeats can differ widely.

CC(C)OC(=O)N1CCC(Nc2ncc(Br)cn2)CC1 read Toxoplasma: 11.55%; ClpP1P2: 1.53%; Leishmania in macrophages: 16.83%; T. brucei: -23.77%. Result for O=C(CCn1cccc1)N1CCc2[nH]nc(COc3ccccc3)c2C1 was Toxoplasma: -12.79%; ClpP1P2: -16.2%; Leishmania in macrophages: -18.77%; T. brucei: -16.91%. O=C(c1ccsc1)N1CCC2(CCN(Cc3ccccn3)C2=O)C1 (configuration not stated) gave ClpP1P2: 2.063%. CC(C)(C)Oc1ccc(C(=O)N2CCOCC2c2ncon2)cc1 (configuration not stated) read Toxoplasma: 3.407%; ClpP1P2: -5.8%; Leishmania in macrophages: 9.197%; T. brucei: -5.037%. CCCc1n[nH]c(C2CN(Cc3ncc[nH]3)CCO2)n1 (configuration not stated) read Toxoplasma: 4.811%; ClpP1P2: 8.9%; Leishmania in macrophages: 9.746%; T. brucei: -18.27%. Result for [H][C@@]12CN(Cc3ccoc3)CCO[C@]1([H])CN(C(=O)N1CCCC1)C2 was Toxoplasma: -10.83%; Leishmania in macrophages: 5.823%; T. brucei: -19.95%. With O=C(NC1CC1)N1CCCC2(CCCCN2)C1.O=C(O)C(F)(F)F (configuration not stated) the screen gave Toxoplasma: -20.97%; Leishmania in macrophages: 9.443%; T. brucei: -1.127%.

With O=C(O)C(F)(F)F.O=C(O)C(F)(F)F.[H][C@@]12CN(Cc3ccc(OC)cc3)C[C@]1([H])C(=O)N(Cc1ccncc1)C2 the screen gave Toxoplasma: -23.02%; Leishmania in macrophages: 16.5%; T. brucei: -8.059%. Result for COc1cc(CNCC(O)c2ccccc2F)cc2c1OCO2 (configuration not stated) was Toxoplasma: 6.158%; ClpP1P2: -9.447%; Leishmania in macrophages: 34.29%; T. brucei: 55.14%. O=C(O)C(F)(F)F.[H][C@@]12COC[C@H](C(=O)N3CCCCO3)[C@]1([H])CN(C1CCCC1)C2 gave Toxoplasma: 0.1068%; Leishmania in macrophages: 20.17%; T. brucei: -10.24%. For COCCOc1ncccc1C(=O)N1CCCCC1c1nccs1 (configuration not stated) the result was Toxoplasma: 9.097%; ClpP1P2: -22.95%; Leishmania in macrophages: -4.276%; T. brucei: -10.04%. With CSc1ncc(C(=O)N2CCC(O)(CN3CCOCC3)C(C)(C)C2)cn1 (configuration not stated) the screen gave Toxoplasma: -2.523%; ClpP1P2: -9.589%; Leishmania in macrophages: 5.143%; T. brucei: -51.19%. c1ccc(CCN2CCCC2c2ccnc(Nc3ncccn3)n2)cc1 (configuration not stated) read Toxoplasma: 3.488%; ClpP1P2: -9.109%; Leishmania in macrophages: 4.682%. For CN(CC(O)C(F)(F)F)C(=O)Nc1cccc(C(F)F)c1 (configuration not stated) the result was Toxoplasma: 0.2295%; ClpP1P2: -4.38%; Leishmania in macrophages: 3.697%; T. brucei: -13.06%.

With Fc1cnc(N2CCCC3(CN(Cc4ccccc4)CCO3)C2)nc1 (configuration not stated) the screen gave ClpP1P2: -0.8847%. For O=C(O)C(F)(F)F.[H][C@]12CCC[C@@]1(COCc1ccncc1)CN(C(=O)c1ccc(F)cc1)C2 the result was Toxoplasma: -6.095%; Leishmania in macrophages: -1.714% & 12.85%; T. brucei: -56.04%. O=C(O)C(F)(F)F.O=C(O)C(F)(F)F.O=C(O)C(F)(F)F.[H][C@@]12CCCO[C@]1([H])[C@H](N(C)Cc1ccco1)CN(Cc1ccccn1)C2 gave Toxoplasma: 2.913%; Leishmania in macrophages: 22.96%; T. brucei: -12.63%. With Cc1cccc(CNC2CC3(CCN(CCO)CC3)c3ccccc32)n1.O=C(O)C(F)(F)F.O=C(O)C(F)(F)F (configuration not stated) the screen gave Toxoplasma: 3.334%; Leishmania in macrophages: 9.361%; T. brucei: 13.54%. Result for Cn1cccc1C(=O)N1CCn2cc(CN3CCCC3)nc2C1 was Toxoplasma: -18.42%; ClpP1P2: 3.746%; Leishmania in macrophages: 14.6%; T. brucei: -723.7%. Cc1nn(C)c(N2CCOCC2)c1CNCc1ccc2c(c1)OCO2 gave Toxoplasma: 5.451%; ClpP1P2: -41.22%; Leishmania in macrophages: 7.198%.